Experimental data: the supplement of paper PMC10849652
Some of the results follow.

By UniProt entry, the sequences of proteins in these tests, tags left out. Where a name states a change or a piece, a line headed by the entry shows the natural chain unless it says otherwise.
UniProt Q12904: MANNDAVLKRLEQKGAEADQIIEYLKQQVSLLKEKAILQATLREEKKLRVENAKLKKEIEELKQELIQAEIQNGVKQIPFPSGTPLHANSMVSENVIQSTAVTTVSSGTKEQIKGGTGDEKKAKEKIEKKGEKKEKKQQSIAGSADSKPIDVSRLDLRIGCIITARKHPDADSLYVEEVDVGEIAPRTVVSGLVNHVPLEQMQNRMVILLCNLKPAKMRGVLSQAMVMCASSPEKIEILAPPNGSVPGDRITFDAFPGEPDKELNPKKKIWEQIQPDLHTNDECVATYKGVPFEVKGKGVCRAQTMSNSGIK
UniProt P52594: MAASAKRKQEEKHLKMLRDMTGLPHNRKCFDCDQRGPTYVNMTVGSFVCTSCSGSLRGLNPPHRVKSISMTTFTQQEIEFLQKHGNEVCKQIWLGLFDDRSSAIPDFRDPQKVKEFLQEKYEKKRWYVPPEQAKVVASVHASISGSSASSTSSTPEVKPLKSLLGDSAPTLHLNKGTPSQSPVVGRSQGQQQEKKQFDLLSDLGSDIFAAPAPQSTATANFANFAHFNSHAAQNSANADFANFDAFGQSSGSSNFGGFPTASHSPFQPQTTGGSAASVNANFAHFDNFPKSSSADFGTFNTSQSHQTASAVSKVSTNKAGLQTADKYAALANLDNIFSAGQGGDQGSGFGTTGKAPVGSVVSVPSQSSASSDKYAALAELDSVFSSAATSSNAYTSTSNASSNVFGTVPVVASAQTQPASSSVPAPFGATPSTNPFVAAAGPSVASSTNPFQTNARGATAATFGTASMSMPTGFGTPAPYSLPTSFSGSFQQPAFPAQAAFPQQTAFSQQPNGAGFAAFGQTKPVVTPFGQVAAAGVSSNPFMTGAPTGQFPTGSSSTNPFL
UniProt Q8N142: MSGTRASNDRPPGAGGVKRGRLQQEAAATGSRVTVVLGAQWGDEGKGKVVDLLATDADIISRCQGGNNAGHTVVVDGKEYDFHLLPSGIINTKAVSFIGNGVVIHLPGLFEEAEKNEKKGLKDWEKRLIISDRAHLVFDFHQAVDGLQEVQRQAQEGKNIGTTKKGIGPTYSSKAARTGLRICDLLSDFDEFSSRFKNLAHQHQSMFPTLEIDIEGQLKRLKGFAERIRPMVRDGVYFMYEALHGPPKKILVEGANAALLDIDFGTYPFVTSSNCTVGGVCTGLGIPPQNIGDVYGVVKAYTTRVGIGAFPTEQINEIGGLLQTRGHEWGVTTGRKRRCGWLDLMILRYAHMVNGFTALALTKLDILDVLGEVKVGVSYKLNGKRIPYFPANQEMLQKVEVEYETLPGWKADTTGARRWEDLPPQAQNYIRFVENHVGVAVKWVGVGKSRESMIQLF
UniProt P07311: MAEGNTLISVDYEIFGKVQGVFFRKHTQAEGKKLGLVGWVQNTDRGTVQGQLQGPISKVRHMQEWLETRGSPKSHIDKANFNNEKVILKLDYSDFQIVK
UniProt Q96HN2, whole entry, looked up: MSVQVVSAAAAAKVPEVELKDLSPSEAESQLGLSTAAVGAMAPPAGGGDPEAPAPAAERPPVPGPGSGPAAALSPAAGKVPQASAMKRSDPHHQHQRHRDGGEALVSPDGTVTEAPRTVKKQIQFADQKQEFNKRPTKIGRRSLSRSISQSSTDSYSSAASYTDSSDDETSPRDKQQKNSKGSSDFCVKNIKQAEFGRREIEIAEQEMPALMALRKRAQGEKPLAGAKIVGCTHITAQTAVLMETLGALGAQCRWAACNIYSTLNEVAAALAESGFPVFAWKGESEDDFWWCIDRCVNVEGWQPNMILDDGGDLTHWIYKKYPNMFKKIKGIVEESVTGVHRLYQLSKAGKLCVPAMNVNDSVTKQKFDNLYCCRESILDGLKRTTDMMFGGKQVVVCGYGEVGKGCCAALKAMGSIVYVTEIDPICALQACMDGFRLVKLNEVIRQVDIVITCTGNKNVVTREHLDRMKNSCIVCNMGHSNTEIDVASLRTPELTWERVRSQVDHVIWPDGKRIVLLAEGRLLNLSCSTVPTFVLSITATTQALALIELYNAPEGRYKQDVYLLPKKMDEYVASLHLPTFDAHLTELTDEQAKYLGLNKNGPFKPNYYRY
UniProt Q9H9F9, whole entry, looked up: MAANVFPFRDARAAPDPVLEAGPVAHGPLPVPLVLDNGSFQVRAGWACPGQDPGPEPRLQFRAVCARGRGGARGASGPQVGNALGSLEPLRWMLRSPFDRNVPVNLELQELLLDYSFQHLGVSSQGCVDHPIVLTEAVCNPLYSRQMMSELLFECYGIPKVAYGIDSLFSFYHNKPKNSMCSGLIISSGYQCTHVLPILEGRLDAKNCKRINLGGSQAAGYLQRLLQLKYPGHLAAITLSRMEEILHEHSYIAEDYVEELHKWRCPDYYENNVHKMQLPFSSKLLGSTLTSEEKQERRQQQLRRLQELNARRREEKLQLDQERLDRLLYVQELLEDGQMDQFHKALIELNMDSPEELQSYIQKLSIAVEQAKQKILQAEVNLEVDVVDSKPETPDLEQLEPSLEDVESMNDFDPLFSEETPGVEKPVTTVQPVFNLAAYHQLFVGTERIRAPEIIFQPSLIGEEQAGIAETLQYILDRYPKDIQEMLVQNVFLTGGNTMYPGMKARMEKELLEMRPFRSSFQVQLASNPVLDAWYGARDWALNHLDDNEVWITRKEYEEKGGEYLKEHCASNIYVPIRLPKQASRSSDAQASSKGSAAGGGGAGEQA
UniProt O95081: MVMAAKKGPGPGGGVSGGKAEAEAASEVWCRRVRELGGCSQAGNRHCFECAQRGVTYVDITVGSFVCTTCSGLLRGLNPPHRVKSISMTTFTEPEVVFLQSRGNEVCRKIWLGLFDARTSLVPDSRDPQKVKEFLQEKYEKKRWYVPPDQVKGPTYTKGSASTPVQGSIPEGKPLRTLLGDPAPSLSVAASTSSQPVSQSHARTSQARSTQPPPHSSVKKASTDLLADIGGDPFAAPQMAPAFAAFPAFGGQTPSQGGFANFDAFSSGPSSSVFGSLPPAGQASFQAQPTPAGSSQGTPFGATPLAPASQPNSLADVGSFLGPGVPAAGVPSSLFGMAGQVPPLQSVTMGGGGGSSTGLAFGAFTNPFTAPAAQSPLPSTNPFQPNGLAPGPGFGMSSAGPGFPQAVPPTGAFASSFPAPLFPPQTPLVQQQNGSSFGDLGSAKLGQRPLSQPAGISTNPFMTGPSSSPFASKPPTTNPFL
UniProt Q9UIJ7: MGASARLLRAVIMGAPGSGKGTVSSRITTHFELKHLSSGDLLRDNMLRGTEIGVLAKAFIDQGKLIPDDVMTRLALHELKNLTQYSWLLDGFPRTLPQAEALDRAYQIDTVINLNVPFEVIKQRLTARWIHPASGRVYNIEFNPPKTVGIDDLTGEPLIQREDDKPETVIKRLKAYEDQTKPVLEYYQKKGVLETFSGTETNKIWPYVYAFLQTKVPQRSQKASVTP
UniProt Q9NZD4: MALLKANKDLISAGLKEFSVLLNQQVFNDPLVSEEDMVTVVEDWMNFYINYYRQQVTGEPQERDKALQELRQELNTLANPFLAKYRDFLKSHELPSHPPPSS
UniProt Q9BV57: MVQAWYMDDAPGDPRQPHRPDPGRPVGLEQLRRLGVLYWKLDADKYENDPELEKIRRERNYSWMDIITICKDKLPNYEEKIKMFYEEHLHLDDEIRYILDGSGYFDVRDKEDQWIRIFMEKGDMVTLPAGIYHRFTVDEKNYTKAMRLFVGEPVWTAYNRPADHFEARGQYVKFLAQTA
UniProt Q8N157: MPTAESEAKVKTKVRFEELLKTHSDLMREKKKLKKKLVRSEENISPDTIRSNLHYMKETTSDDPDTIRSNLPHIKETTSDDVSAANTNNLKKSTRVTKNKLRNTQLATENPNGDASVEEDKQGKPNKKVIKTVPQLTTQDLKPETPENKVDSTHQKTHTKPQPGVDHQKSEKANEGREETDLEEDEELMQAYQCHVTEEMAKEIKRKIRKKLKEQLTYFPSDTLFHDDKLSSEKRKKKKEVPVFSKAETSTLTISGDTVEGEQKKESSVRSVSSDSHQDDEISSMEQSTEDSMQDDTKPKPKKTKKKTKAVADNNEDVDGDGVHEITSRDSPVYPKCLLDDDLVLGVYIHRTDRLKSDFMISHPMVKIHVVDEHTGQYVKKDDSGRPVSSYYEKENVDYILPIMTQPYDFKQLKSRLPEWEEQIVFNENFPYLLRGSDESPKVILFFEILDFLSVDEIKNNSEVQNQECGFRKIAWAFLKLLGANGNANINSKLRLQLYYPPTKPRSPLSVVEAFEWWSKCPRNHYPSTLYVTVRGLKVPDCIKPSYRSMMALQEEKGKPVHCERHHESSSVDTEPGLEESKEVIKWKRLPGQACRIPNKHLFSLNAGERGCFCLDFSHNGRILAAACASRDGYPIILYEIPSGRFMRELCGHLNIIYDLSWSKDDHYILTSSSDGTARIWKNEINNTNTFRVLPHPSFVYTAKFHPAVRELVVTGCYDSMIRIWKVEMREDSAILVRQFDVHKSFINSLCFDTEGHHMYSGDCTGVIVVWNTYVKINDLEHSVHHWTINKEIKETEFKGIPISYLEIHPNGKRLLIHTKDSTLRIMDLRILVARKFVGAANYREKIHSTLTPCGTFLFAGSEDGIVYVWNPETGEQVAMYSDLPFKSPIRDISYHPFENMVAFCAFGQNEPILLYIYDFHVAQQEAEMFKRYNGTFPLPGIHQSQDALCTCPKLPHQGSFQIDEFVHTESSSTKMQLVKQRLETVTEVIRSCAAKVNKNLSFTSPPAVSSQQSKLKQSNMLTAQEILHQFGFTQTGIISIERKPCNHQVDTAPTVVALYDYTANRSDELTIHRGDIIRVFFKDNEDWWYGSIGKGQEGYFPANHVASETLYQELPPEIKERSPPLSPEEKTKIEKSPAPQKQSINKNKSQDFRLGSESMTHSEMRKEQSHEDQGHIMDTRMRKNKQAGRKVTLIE
UniProt P14621: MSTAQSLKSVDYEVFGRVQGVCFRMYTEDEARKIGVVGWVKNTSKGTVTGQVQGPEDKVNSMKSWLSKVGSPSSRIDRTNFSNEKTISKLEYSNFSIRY
UniProt Q9UPQ3: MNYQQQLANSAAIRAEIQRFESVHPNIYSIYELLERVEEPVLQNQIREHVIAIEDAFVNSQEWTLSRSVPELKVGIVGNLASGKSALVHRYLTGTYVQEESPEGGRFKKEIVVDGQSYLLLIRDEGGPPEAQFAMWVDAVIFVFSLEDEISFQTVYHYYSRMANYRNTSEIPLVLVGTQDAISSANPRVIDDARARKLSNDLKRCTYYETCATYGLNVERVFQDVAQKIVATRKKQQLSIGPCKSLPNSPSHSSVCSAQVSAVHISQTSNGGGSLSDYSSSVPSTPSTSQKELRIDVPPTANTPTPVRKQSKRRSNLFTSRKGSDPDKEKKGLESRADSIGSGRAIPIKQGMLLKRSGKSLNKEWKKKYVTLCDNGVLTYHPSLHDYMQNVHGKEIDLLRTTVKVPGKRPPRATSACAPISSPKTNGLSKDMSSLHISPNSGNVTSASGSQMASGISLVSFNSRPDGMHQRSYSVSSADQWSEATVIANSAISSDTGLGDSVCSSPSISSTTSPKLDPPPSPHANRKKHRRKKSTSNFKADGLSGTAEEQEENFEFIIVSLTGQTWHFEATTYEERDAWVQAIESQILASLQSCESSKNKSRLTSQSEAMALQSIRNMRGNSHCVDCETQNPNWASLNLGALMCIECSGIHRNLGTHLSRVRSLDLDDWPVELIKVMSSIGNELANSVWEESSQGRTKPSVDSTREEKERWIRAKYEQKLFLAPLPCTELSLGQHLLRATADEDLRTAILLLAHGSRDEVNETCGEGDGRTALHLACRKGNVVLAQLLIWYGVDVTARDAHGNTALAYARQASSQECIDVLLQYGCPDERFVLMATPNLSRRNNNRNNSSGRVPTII
UniProt Q8N302: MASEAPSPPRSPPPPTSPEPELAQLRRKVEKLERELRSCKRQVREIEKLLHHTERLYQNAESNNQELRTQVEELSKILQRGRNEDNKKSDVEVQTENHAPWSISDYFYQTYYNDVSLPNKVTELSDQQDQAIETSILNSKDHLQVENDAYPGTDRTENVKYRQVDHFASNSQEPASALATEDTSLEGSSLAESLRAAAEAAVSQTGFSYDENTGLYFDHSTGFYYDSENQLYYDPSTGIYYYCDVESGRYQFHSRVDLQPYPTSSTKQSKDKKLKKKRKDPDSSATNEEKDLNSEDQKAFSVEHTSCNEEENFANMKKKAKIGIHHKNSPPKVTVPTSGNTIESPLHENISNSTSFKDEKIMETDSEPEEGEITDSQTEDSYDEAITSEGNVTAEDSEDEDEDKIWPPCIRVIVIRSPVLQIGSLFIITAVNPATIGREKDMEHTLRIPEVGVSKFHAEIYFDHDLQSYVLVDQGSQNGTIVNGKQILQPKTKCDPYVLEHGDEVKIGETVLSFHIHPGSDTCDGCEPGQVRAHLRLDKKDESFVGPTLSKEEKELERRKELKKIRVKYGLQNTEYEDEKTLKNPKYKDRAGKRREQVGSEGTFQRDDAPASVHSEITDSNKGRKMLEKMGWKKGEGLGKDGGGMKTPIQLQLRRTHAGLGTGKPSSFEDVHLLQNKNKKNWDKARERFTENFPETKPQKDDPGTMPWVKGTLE

What was measured:
Assay in all cases: log2 fold change, soluble protein after heating vs DMSO (PISA); higher = thermal stabilisation; K562 lysate, 10 uM; active = over 0.2 and 3.5 SD of the protein, either way, in both replicates (recomputed)
[1] = compound: CCCS(=O)(=O)Nc1ccc(F)c(C(=O)c2c[nH]c3ncc(-c4ccc(Cl)cc4)cc23)c1F [vemurafenib]
Method in brief: (§1)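 Pellets of K562 cells were dounce-homogenised in PBS pH 7.4 with 1 mM MgCl2, and the crude extract was held at 1 mg/mL protein for a 30 min treatment with 10 μM compound. Aliquots were heated for 3 min over 48°C-58°C and pooled before NP-40 was added to 0.5% at 4°C. The supernatant from 21,000xg for 90 min was quantified by TMTpro 16plex LC-MS/MS with channel sums equalised. Values are reported from duplicates as log-two fold change in thermal stability relative to solvent controls.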

[2] = compound: CCCS(=O)(=O)Nc1ccc(F)c(C(=O)c2c[nH]c3ncc(Cl)cc23)c1F
Method in brief: as §1

[3] = compound: CCN(CCCOc1ccc2c(Nc3cc(CC(=O)Nc4cccc(F)c4)[nH]n3)ncnc2c1)CCOP(=O)(O)O [barasertib]
Method in brief: as §1

[4] = compound: CC[C@@H]1C(=O)N(C)c2cnc(Nc3ccc(C(=O)NC4CCN(C)CC4)cc3OC)nc2N1C1CCCC1
Method in brief: as §1

[5] = compound: CC[C@@H]1C(=O)N(C)c2cnc(Nc3ccc(C(=O)N[C@H]4CC[C@H](N5CCN(CC6CC6)CC5)CC4)cc3OC)nc2N1C(C)C [volasertib]
Method in brief: as §1

[6] = compound: CCn1c(C(=O)N(C2CC2)C2CC2)cc2c3c(ncn3C)c(Nc3cc(C)n(C)n3)nc21
Method in brief: as §1

[7] = compound: CCn1cc(-c2ccnc3[nH]c(-c4cccc(CN(C)C)c4)cc23)c(-c2ccc(NC(=O)N(C)C)cc2)n1
Method in brief: as §1

[8] = compound: CN1CCC(CNc2ccc3ncc(-c4cccc(OC(F)(F)F)c4)n3n2)CC1
Method in brief: as §1

[9] = compound: CN1CCN(CCOc2cc(OC3CCOCC3)c3c(Nc4c(Cl)ccc5c4OCO5)ncnc3c2)CC1 [saracatinib]
Method in brief: as §1

[10] = compound: CN1CCN(c2nc(C3=C(c4c[nH]c5ccccc45)C(=O)NC3=O)c3ccccc3n2)CC1 [sotrastaurin]
Method in brief: as §1

| Target | log2 fold change [1] | log2 fold change [2] | log2 fold change [3] | log2 fold change [4] | log2 fold change [5] | log2 fold change [6] | log2 fold change [7] | log2 fold change [8] | log2 fold change [9] | log2 fold change [10] |
| --- | --- | --- | --- | --- | --- | --- | --- | --- | --- | --- |
| AIMP1 isoform 2 (UniProt Q12904) | inactive: 0.001 | inactive: 0.018 | inactive: 0.015 | inactive: -0.036 | inactive: -0.057 | inactive: 0.025 | inactive: -0.024 | inactive: -0.081 | inactive: 0.023 | inactive: -0.001 |
| AGFG1 isoform 4 (UniProt P52594) | inactive: -0.01 | inactive: 0.003 | inactive: -0.018 | inactive: 0.032 | inactive: 0.026 | inactive: 0.01 | inactive: -0.02 | inactive: 0.077 | inactive: -0.006 | inactive: -0.045 |
| ACTR3 (UniProt P61158) | inactive: 0.011 | inactive: 0.052 | inactive: -0.026 | inactive: 0.021 | inactive: 0.016 | inactive: -0.013 | inactive: 0.024 | inactive: 0.041 | inactive: -0.033 | inactive: 0.02 |
| ADGRE2 (UniProt Q9UHX3) | inactive: -0.036 | inactive: 0.09 | inactive: -0.09 | inactive: 0.049 | inactive: -0.005 | inactive: -0.03 | inactive: -0.074 | inactive: 0.005 | inactive: 0.057 | inactive: -0.012 |
| AFDN isoform 1 (UniProt P55196) | inactive: 0.01 | inactive: 0.012 | inactive: 0.005 | inactive: -0.003 | inactive: -0.022 | inactive: 0.014 | inactive: 0.03 | inactive: -0.061 | inactive: 0.01 | inactive: -0.004 |
| AFP (UniProt P02771) | inactive: 0.181 | inactive: 0.062 | inactive: -0.052 | inactive: 0.002 | inactive: -0.048 | inactive: 0.016 | inactive: 0.132 | inactive: -0.095 | inactive: 0.039 | inactive: 0.003 |
| ADSS1 (UniProt Q8N142) | inactive: -0.002 | inactive: 0.019 | inactive: -0.075 | inactive: 0.037 | inactive: -0.012 | inactive: -0.057 | inactive: -0.096 | inactive: 0.101 | inactive: 0.007 | inactive: 0.031 |
| ADNP (UniProt Q9H2P0) | inactive: 0.004 | inactive: 0.017 | inactive: 0.048 | inactive: -0.02 | inactive: -0.05 | inactive: 0.001 | inactive: -0.08 | inactive: 0.068 | inactive: -0.03 | inactive: 0.022 |
| ACTG1 (UniProt I3L4N8) | inactive: 0.131 | inactive: -0.062 | inactive: 0.218 | inactive: -0.208 | inactive: -0.006 | inactive: -0.384 | inactive: 0.94 | inactive: -0.091 | inactive: -0.002 | inactive: 0.001 |
| AKAP8L (UniProt Q9ULX6) | inactive: -0.003 | inactive: 0.033 | inactive: -0.066 | inactive: -0.036 | inactive: -0.042 | inactive: 0.019 | inactive: -0.042 | inactive: -0.01 | inactive: 0.002 | inactive: 0.013 |
| ACYP1 (UniProt P07311) | inactive: -0.038 | inactive: -0.024 | inactive: 0.024 | inactive: -0.005 | inactive: 0.032 | inactive: 0.006 | active: 0.284 | inactive: -0.082 | inactive: 0.003 | inactive: -0.032 |
| ADD1 isoform 3 (UniProt P35611) | inactive: -0.025 | inactive: -0.002 | inactive: -0.001 | inactive: 0.036 | inactive: 0.007 | inactive: -0.002 | inactive: -0.013 | inactive: 0.054 | inactive: 0.002 | inactive: 0 |
| AHCYL2 (UniProt Q96HN2) | inactive: -0.025 | inactive: -0.013 | inactive: 0.013 | inactive: 0.044 | inactive: -0.008 | inactive: -0.009 | inactive: 0.003 | inactive: 0.036 | inactive: -0.073 | inactive: 0.001 |
| ADD2 isoform 9 (UniProt P35612) | inactive: 0.086 | inactive: -0.179 | – | inactive: 0.201 | inactive: 0.068 | inactive: 0.02 | inactive: 0.343 | inactive: -0.474 | inactive: -0.058 | – |
| ACTB (UniProt C9JTX5) | inactive: -0.403 | inactive: -0.002 | inactive: 0.355 | – | inactive: -0.047 | – | inactive: 0.778 | inactive: -0.157 | inactive: 0.063 | inactive: -0.017 |
| ACTR5 (UniProt Q9H9F9) | inactive: 0.03 | – | inactive: 0.055 | inactive: 0.058 | – | inactive: 0.035 | inactive: -0.173 | inactive: -0.072 | inactive: 0.155 | inactive: 0.067 |

Rewritten with bars between the fields: part of the list above
Target | log2 fold change [1] | log2 fold change [2] | log2 fold change [3] | log2 fold change [4] | log2 fold change [5] | log2 fold change [6] | log2 fold change [7] | log2 fold change [8] | log2 fold change [9] | log2 fold change [10]
ACYP1 (UniProt P07311) | inactive: -0.038 | inactive: -0.024 | inactive: 0.024 | inactive: -0.005 | inactive: 0.032 | inactive: 0.006 | active: 0.284 | inactive: -0.082 | inactive: 0.003 | inactive: -0.032
ADD1 isoform 3 (UniProt P35611) | inactive: -0.025 | inactive: -0.002 | inactive: -0.001 | inactive: 0.036 | inactive: 0.007 | inactive: -0.002 | inactive: -0.013 | inactive: 0.054 | inactive: 0.002 | inactive: 0

The list goes on:

| Target | log2 fold change [1] | log2 fold change [2] | log2 fold change [3] | log2 fold change [4] | log2 fold change [5] | log2 fold change [6] | log2 fold change [7] | log2 fold change [8] | log2 fold change [9] | log2 fold change [10] |
| --- | --- | --- | --- | --- | --- | --- | --- | --- | --- | --- |
| AGFG2 (UniProt O95081) | inactive: 0.072 | inactive: -0.199 | – | inactive: -0.001 | inactive: -0.201 | inactive: 0.007 | – | – | inactive: 0.126 | inactive: 0.043 |
| AK3 (UniProt Q9UIJ7) | inactive: -0.015 | inactive: -0.015 | inactive: -0.018 | inactive: -0.031 | inactive: 0.022 | inactive: 0.003 | inactive: 0.054 | inactive: -0.016 | inactive: -0.018 | inactive: -0.025 |
| ADIPOR2 (UniProt Q86V24) | inactive: -0.049 | inactive: 0.028 | inactive: 0.252 | inactive: 0.054 | inactive: 0.015 | inactive: -0.073 | – | – | inactive: 0.01 | inactive: 0.024 |
| AHSP (UniProt Q9NZD4) | inactive: 0.033 | inactive: -0.107 | inactive: 0.078 | inactive: 0.008 | inactive: 0.11 | – | inactive: 0.178 | inactive: -0.15 | – | – |
| ADI1 (UniProt Q9BV57) | inactive: -0.006 | inactive: 0.004 | inactive: 0.074 | inactive: 0.061 | inactive: -0.028 | inactive: -0.009 | inactive: -0.115 | inactive: 0.104 | inactive: 0.036 | inactive: 0.059 |
| AHI1 (UniProt Q8N157) | inactive: 0.083 | – | – | inactive: -0.034 | – | – | – | – | – | – |
| AKAP11 (UniProt Q9UKA4) | inactive: -0.272 | inactive: -0.029 | inactive: 0.082 | inactive: 0.051 | inactive: 0.038 | inactive: -0.055 | inactive: 0.044 | inactive: -0.024 | inactive: 0.028 | inactive: -0.103 |
| ACYP2 (UniProt P14621) | inactive: -0.245 | inactive: -0.023 | inactive: 0.04 | – | inactive: 0.011 | inactive: -0.007 | inactive: 0.189 | inactive: -0.036 | – | inactive: -0.019 |
| ACTB, A0A2R8YGF8 | inactive: 0.962 | – | inactive: 2.23 | – | – | – | inactive: 2.24 | inactive: 0.36 | – | – |
| ADCK1 (UniProt Q86TW2) | inactive: -0.11 | – | – | inactive: 0.085 | – | – | inactive: -0.141 | inactive: -0.066 | – | – |
| ACTN4 (UniProt K7EJH8) | – | inactive: 0.043 | inactive: 0.041 | inactive: 0.091 | inactive: 0.015 | inactive: -0.063 | inactive: -0.038 | inactive: 0.091 | inactive: 0.06 | inactive: 0.029 |
| AGAP1 (UniProt Q9UPQ3) | inactive: 0.264 | inactive: 0.027 | inactive: 0.055 | – | inactive: -0.029 | inactive: -0.054 | inactive: 0.052 | inactive: 0.001 | inactive: 0.056 | inactive: 0.008 |
| AGGF1 (UniProt Q8N302) | inactive: 0.112 | inactive: -0.043 | inactive: 0.115 | inactive: 0.084 | inactive: -0.06 | inactive: 0.001 | active: -0.43 | inactive: 0.175 | – | inactive: 0.025 |
| AK5 (UniProt Q9Y6K8) | inactive: -0.019 | inactive: 0.057 | inactive: -0.015 | inactive: 0.035 | inactive: -0.041 | inactive: 0.017 | – | – | inactive: 0.047 | inactive: -0.035 |
| ADIPOR1 (UniProt Q96A54) | inactive: -0.003 | – | inactive: 0.133 | inactive: 0.002 | – | inactive: 0.019 | inactive: 0.075 | inactive: -0.023 | inactive: 0.147 | inactive: 0.021 |
| ACTN2, A0A494C031 | inactive: 0.273 | inactive: 0.043 | inactive: -0.041 | inactive: 0.156 | inactive: 0.068 | inactive: -0.231 | inactive: -0.092 | inactive: 0.228 | – | inactive: 0.042 |
